Results are given in words; binding and its absence hold for the method and conditions named. In cells and extracts the contact can be indirect. Some entries that bind do so weakly or less than the wild type. Each block holds one molecule with its values, some of them ahead of it.
Biological target: T1, CDC25B (cell division cycle 25B) (mouse (endogenous in oocytes and eggs)) (UniProt P30306)
T1 sequence: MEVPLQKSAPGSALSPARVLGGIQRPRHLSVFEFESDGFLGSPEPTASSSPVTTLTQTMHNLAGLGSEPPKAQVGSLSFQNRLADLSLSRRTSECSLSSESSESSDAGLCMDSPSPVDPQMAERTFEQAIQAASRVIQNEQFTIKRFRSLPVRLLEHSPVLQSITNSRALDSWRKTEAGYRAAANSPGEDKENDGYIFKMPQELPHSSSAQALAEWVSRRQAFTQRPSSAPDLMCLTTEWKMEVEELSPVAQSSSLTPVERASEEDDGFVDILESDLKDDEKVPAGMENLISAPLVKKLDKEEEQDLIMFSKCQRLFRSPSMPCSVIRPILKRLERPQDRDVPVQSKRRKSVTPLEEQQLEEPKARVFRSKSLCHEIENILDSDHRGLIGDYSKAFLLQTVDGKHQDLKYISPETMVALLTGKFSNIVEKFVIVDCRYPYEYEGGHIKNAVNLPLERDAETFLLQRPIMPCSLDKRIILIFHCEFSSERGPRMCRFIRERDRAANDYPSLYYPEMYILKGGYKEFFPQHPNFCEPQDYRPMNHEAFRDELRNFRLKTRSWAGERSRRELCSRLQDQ
Experiment: proximity ligation; Duolink in situ PLA in fixed and permeabilized mouse oocytes and eggs; rabbit anti-14-3-3 isoform panel PAN017 and goat anti-CDC25B (sc-6948), each 1:200; confocal Z-stacks at 3 μm intervals

Protein sequences, listed by entry. Tags and fused reporters are not part of them.
UniProt P62259: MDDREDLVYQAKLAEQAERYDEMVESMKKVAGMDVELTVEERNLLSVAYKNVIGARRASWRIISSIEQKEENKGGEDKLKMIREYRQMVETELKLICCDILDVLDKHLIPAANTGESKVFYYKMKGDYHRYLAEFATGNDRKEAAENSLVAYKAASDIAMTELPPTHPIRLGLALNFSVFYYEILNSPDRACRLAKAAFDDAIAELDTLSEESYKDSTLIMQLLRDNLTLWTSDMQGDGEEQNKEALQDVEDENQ
UniProt P63101: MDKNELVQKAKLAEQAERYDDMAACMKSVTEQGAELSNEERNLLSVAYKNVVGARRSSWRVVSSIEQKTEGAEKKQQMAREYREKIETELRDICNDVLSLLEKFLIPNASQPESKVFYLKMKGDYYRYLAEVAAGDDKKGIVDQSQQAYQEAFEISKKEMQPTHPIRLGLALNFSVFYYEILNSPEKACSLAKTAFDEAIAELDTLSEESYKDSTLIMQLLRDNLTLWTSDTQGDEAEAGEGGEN

Molecule: YWHAE (Tyrosine 3-Monooxygenase/Tryptophan 5-Monooxygenase Activation protein, Epsilon polypeptide) (from UniProt P62259 1-255)
- binding: binds

B1: SFN (Stratifin) (protein, UniProt O70456 1-248)
chain: MERASLIQKAKLAEQAERYEDMAAFMKSAVEKGEELSCEERNLLSVAYKNVVGGQRAAWRVLSSIEQKSNEEGSEEKGPEVKEYREKVETELRGVCDTVLGLLDSHLIKGAGDAESRVFYLKMKGDYYRYLAEVATGDDKKRIIDSARSAYQEAMDISKKEMPPTNPIRLGLALNFSVFHYEIANSPEEAISLAKTTFDEAMADLHTLSEDSYKDSTLIMQLLRDNLTLWTADSAGEEGGEAPEEPQS
- binding: binds

B3: YWHAB (Tyrosine 3-Monooxygenase/Tryptophan 5-Monooxygenase Activation protein, Beta polypeptide) (protein, UniProt Q9CQV8-1 1-246)
chain: MTMDKSELVQKAKLAEQAERYDDMAAAMKAVTEQGHELSNEERNLLSVAYKNVVGARRSSWRVISSIEQKTERNEKKQQMGKEYREKIEAELQDICNDVLELLDKYLILNATQAESKVFYLKMKGDYFRYLSEVASGENKQTTVSNSQQAYQEAFEISKKEMQPTHPIRLGLALNFSVFYYEILNSPEKACSLAKTAFDEAIAELDTLNEESYKDSTLIMQLLRDNLTLWTSENQGDEGDAGEGEN
- binding: binds

B5: YWHAG (Tyrosine 3-Monooxygenase/Tryptophan 5-Monooxygenase Activation protein, Gamma polypeptide) (protein, UniProt P61982 1-247)
chain: MVDREQLVQKARLAEQAERYDDMAAAMKNVTELNEPLSNEERNLLSVAYKNVVGARRSSWRVISSIEQKTSADGNEKKIEMVRAYREKIEKELEAVCQDVLSLLDNYLIKNCSETQYESKVFYLKMKGDYYRYLAEVATGEKRATVVESSEKAYSEAHEISKEHMQPTHPIRLGLALNYSVFYYEIQNAPEQACHLAKTAFDDAIAELDTLNEDSYKDSTLIMQLLRDNLTLWTSDQQDDDGGEGNN
- binding: binds

Second part, the molecule after the results:

- binding: binds
Molecule: YWHAZ (Tyrosine 3-Monooxygenase/Tryptophan 5-Monooxygenase Activation protein, Zeta polypeptide) (from UniProt P63101 1-245)

- binding: binds
B2: YWHAH (Tyrosine 3-Monooxygenase/Tryptophan 5-Monooxygenase Activation protein, Eta polypeptide) (protein, UniProt P68510 1-246)
chain: MGDREQLLQRARLAEQAERYDDMASAMKAVTELNEPLSNEDRNLLSVAYKNVVGARRSSWRVISSIEQKTMADGNEKKLEKVKAYREKIEKELETVCNDVLALLDKFLIKNCNDFQYESKVFYLKMKGDYYRYLAEVASGEKKNSVVEASEAAYKEAFEISKEHMQPTHPIRLGLALNFSVFYYEIQNAPEQACLLAKQAFDDAIAELDTLNEDSYKDSTLIMQLLRDNLTLWTSDQQDEEAGEGN

- binding: binds
B4: YWHAQ (Tyrosine 3-Monooxygenase/Tryptophan 5-Monooxygenase Activation protein, Theta/Tau polypeptide) (protein, UniProt P68254-1 1-245)
chain: MEKTELIQKAKLAEQAERYDDMATCMKAVTEQGAELSNEERNLLSVAYKNVVGGRRSAWRVISSIEQKTDTSDKKLQLIKDYREKVESELRSICTTVLELLDKYLIANATNPESKVFYLKMKGDYFRYLAEVACGDDRKQTIENSQGAYQEAFDISKKEMQPTHPIRLGLALNFSVFYYEILNNPELACTLAKTAFDEAIAELDTLNEDSYKDSTLIMQLLRDNLTLWTSDSAGEECDAAEGAEN

From PMC6805688
